Where “and” joins values, the source holds several entries; their conditions need not be identical. Equal entries are not always repeated. The list shows a part of the results. Repeats in this data set agree poorly, so a single value says little.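 HEK293T cells were given each compound shortly before transfection with a reporter in which red mCherry is followed by the SARS-CoV-2 frameshift element and then GFP in the −1 frame, so GFP appears only after frameshifting.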

This assay has as its system HEK293T. The experiment in a line: percent viability (nuclei count) relative to control; higher = more viable cells. The settings on record: 10 µM; 24 h.
For the compound `COc1ccc2c3c1O[C@H]1[C@@H](O)C=C[C@H]4[C@@H](C2)NCC[C@@]341`, the percent viability was found to be 236%.

Regarding `C[C@]12CC[C@H]3[C@@H](CC[C@@]45O[C@@H]4C(O)=C(C#N)C[C@]35C)[C@@H]1CC[C@@H]2O` [trilostane], the percent viability stood at 117%.

`CCOP(=O)(OCC)O/C(=C\Cl)c1ccc(Cl)cc1Cl` [clofenvinfos]: the percent viability came to 178%.

Regarding `FC(F)(F)c1cccc(C2CNCCO2)c1` (stereo not given) [flumexadol], the percent viability came out at 350%.

In the case of `CCC1(c2ccccc2)C(=O)NC(=O)N(C)C1=O` (stereo not given) [methylphenobarbital], the percent viability came to 190%.

For the compound `CCC(=O)O[C@H]1CC[C@H]2[C@@H]3CCC4=CC(=O)CC[C@]4(C)[C@H]3CC[C@]12C` [Testosterone Propionate], the percent viability was found to be 228%.

For `C=CCN1CC[C@]23c4c5ccc(O)c4O[C@H]2[C@@H](O)C=C[C@H]3[C@H]1C5` [nalorphine], the percent viability is 348%.

Turning to `CCN(CC)Cc1nccn1-c1ccc([N+](=O)[O-])cc1C(=O)c1ccccc1Cl` [nizofenone], the percent viability stood at 180%.

On to `NC(=O)C[S+]([O-])C(c1ccccc1)c1ccccc1` (stereo not given) [modafinil], for which the percent viability turned out to be 98.3%.

`CCOC(=O)C1(c2ccccc2)CCN(C)CC1` [pethidine]: the percent viability stood at 245%.

With `C[N+](C)(C)CCCCCCCCCC[N+](C)(C)C` [decamethonium bromide], the percent viability is 214% and 123%.

Turning to `Cc1ccc(-c2nc3ccc(C)cn3c2CC(=O)N(C)C)cc1` [zolpidem], the percent viability is 224% and 212%.

Take `O=C1CC[C@@]2(O)[C@H]3Cc4ccc(O)c5c4[C@@]2(CCN3CC2CC2)[C@H]1O5`: the percent viability came out at 295%.

Turning to `CCN(C)C(C)C(O)c1ccccc1` (stereo not given) [etafedrine], the percent viability is 317%.

Consider `CN=C1CN(O)C(c2ccccc2)=c2cc(Cl)ccc2=N1` [Libritabs], for which the percent viability turned out to be 209%.

In the case of `CN(C)[C@@H]1C(=O)C(C(N)=O)=C(O)[C@@]2(O)C(=O)C3=C(O)c4c(O)ccc(Cl)c4[C@@](C)(O)[C@H]3C[C@@H]12` [chlortetracycline], the percent viability is 140%.

Consider `Cc1ccc(N=CN(C)C=Nc2ccc(C)cc2C)c(C)c1`, for which the percent viability amounted to 169%.

Take `C[C@]12CCC(=NOCCN)C[C@@H]1C(=O)C[C@@H]1[C@@H]2CC[C@]2(C)C(=O)CC[C@@H]12` [istaroxime]: the percent viability amounted to 4.37%.

For `CC(C)(C)NCC(O)c1ccccc1F` (stereo not given) [flerobuterol], the percent viability worked out at 139%.

Take `CCCC(C)(COC(N)=O)COC(=O)NC1CC1` (stereo not given) [lorbamate]: the percent viability stood at 155%.

Take `NC1=NCC(c2ccc(C(F)(F)F)cc2)O1` (stereo not given) [fluminorex]: the percent viability came out at 151%.

For the compound `CN1[C@@H]2C[C@@H](OC(=O)[C@H](CO)c3ccccc3)C[C@H]1[C@@H]1O[C@@H]12`, the percent viability came to 175%.

Consider `CC(=O)[C@@]1(O)CC[C@H]2[C@@H]3CCC4=CC(=O)CC[C@]4(C)[C@@]3(F)[C@@H](O)C[C@@]21C` [flugestone], for which the percent viability came out at 96%.

Turning to `CCOC(=O)C(c1c(O)c2ccccc2oc1=O)c1c(O)c2ccccc2oc1=O` [ethyl biscoumacetate], the percent viability stood at 318%.

With `CNC(C)CC1CCCC1` (stereo not given) [cyclopentamine], the percent viability was 154%.

With `C[C@H]1CCC[C@@H](O)CCCCCc2cc(O)cc(O)c2C(=O)O1` [taleranol], the percent viability came out at 180%.

In the case of `CN[C@]1(c2ccccc2Cl)CCCCC1=O` [esketamine], the percent viability was 196%.

`Oc1ccc2c3c1O[C@H]1c4oc5ccccc5c4C[C@@]4(O)[C@@H](C2)N(CC2CC2)CC[C@]314` [Naltriben methanesulfonate hydrate]: the percent viability is 291%.

For `O=c1cccc2n1C[C@@H]1CNC[C@H]2C1`, the percent viability came out at 270%.

As to `C[C@]12CC[C@H]3[C@@H](CCC4=C(Cl)C(=O)CC[C@@]43C)[C@@H]1CC[C@@H]2O` [clostebol], the percent viability turned out to be 60.9%.

In the case of `CC[C@H]1CN2CC[C@H]1C[C@@H]2[C@@H](O)c1ccnc2ccc(OC)cc12`, the percent viability amounted to 287%.

With `CC(C(=O)c1ccccc1)N(C)C` (stereo not given) [metamfepramone], the percent viability stood at 166%.

As for `CNC1(c2ccccc2Cl)CCCCC1=O` (stereo not given) [ketamine], the percent viability came out at 323%.

Consider `O=C(NC(=O)c1c(F)cccc1F)Nc1ccc(Cl)c(Oc2ncc(C(F)(F)F)cc2Cl)c1` [fluazuron], for which the percent viability amounted to 130%.

On to `CC(C)=CC1C(C(=O)OCc2cccc(Oc3ccccc3)c2)C1(C)C` (stereo not given) [phenothrin], for which the percent viability was determined as 126%.

Regarding `C[C@]12COC(=O)C[C@@H]1CC[C@@H]1[C@@H]2CC[C@@]2(C)[C@H]1CC[C@]2(C)O` [oxandrolone], the percent viability was found to be 325%.

For the compound `CN[C@H](C)Cc1ccccc1` [levmetamfetamine], the percent viability is 81.6%.

Turning to `N.N.[Cl][Pt][Cl]`, the percent viability is 155%.

With `COC(C)(C)CCCC(C)C/C=C/C(C)=C/C(=O)OC(C)C` (stereo not given), the percent viability turned out to be 426%.

With `Cc1ccc(NC2=NCCN2)c(Cl)c1` [tolonidine], the percent viability was found to be 18.4%.

Values taken from the supplement of paper PMC8256030.
